In PMC7594455 one finds binding data, which are given here for four molecules.

No constants are given. Whether binding was seen depends on the method and setting. Binding seen in cells or lysates may run through a third protein. These calls come from enrichment with a bait or labelling near it, and not all partners need be listed.

For assay [1], the target named is T1, Ubp8-TAP (yeast (endogenous in yeast cells)) (UniProt P50102).
T1 sequence: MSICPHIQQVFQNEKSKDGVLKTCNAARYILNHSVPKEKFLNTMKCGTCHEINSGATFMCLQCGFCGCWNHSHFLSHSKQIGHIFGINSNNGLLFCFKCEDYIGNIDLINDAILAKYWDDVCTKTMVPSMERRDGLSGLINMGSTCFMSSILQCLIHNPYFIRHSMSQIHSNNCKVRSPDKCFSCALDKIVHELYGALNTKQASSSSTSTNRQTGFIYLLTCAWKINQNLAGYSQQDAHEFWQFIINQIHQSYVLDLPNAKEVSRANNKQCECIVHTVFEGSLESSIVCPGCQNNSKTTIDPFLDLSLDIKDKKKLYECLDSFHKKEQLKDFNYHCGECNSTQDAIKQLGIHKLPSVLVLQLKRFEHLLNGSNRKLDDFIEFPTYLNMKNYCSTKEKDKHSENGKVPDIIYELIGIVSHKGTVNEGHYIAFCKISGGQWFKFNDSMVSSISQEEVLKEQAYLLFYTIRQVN
As to the kind of experiment: affinity purification with mass spectrometry; Ubp8-TAP purified by tandem affinity purification from extracts of spt7Δ cells; LC MS/MS, MASCOT.

The target of assay [2] is T2, Sus1-TAP (yeast (endogenous in yeast cells)) (UniProt Q6WNK7).
T2 sequence: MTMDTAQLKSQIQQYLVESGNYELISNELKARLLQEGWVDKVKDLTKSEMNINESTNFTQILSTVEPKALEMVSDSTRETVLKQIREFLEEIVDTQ
Kind of assay: affinity purification with mass spectrometry; Sus1-TAP purified by tandem affinity purification (IgG Sepharose, TEV release, calmodulin beads, EGTA elution) from extracts of wild-type cells, of cells lacking SPT7, or ADA1 and/or SPT20, and of sgf29Δ cells; LC MS/MS (MudPIT), MASCOT.

B1: Sgf11 (protein, UniProt Q03067 1-99)
chain: MTEETITIDSISNGILNNLLTTLIQDIVARETTQQQLLKTRYPDLRSYYFDPNGSLDINGLQKQQESSQYIHCENCGRDVSANRLAAHLQRCLSRGARR
In the case of B1, the binding result in assay [1] and in assay [2] was “binds” throughout.

B2: Sus1 (protein, UniProt Q6WNK7 1-96)
chain: T2 sequence
For the molecule B2, the binding result in assay [1] is listed as “binds”.

B3: Sgf73 (protein, UniProt P53165 1-657)
chain: MRSGDAEIKGIKPKVIEEYSLSQGSGPSNDSWKSLMSSAKDTPLQYDHMNRESLKKYFNPNAQLIEDPLDKPIQYRVCEKCGKPLALTAIVDHLENHCAGASGKSSTDPRDESTRETIRNGVESTGRNNNDDDNSNDNNNDDDDDDDNDDNEDDDDADDDDDNSNGANYKKNDSSFNPLKRSTSMESANTPNMDTKRSKTGTPQTFSSSIKKQKKVKQRNPTEKHLIDFNKQCGVELPEGGYCARSLTCKSHSMGAKRAVSGRSKPYDVLLADYHREHQTKIGAAAEKRAKQQELQKLQKQIQKEQKKHTQQQKQGQRSKQRNVNGGKSAKNGGKSTVHNGNNINEIGHVNLTPEEETTQVLNGVSRSFPLPLESTVLSSVRYRTKYFRMREMFASSFSVKPGYTSPGYGAIHSRVGCLDLDRTTDYKFRVRTPQPINHLTNQNLNPKQIQRLQQQRALQAQLLSQQQQQQQQQQQHHSPQAQAQASTQQPTQGMVPNHFPGGATNSSFNANVSSKQIQQQQQQQQHKSQDTGLTPLEIQSQQQKLRQQQLQQQKFEAAASYLANATKLMQESNQDSHLSGTHNNNSSKNGNNNLMTMKASISSPNTSVNSIQSPPSVNSVNGSGQGVSTGINVSGNNGRIEVGIGNSVNPYNGRIN
Consider B3, for which the binding entry in assay [1] and in assay [2] was “binds” each time.

B4: Ubp8 (enzyme, UniProt P50102 1-471)
chain: T1 sequence
For the molecule B4, the binding result in assay [2] is listed as “binds”.
